# Values from PubChem BioAssay AID743121 (NCATS, 2013)
# Screen: 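Knock-downs that sensitise breast cancer cells to camptothecin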 (primary screen)
# System: MDA-MB-231 cells, a human breast cancer line
# Knock-down reagent: single siRNA against human genes, 20 nM siRNA (0.8 pmol per well)
# Timing: 120 h (drug added 48 h after transfection, read 72 h later)
# Challenge: camptothecin 20 nM (about EC30) for 72 h; vehicle 0.1% DMSO in parallel plates
# Detection: 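Cell viability by ATP luminescence (CellTiter-Glo) as % of non-targeting siRNA wells, and the log2 ratio of viability without drug over viability with camptothecin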
# Reading the numbers: log2 vehicle/camptothecin viability: higher = stronger sensitisation to camptothecin; viability with camptothecin: higher = more viable cells
# Active means: 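Active genes have an RSA gene-level p-value below 0.001, computed from the ratios of their separate siRNAs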
# The whole screen tested about 26,000 reagents; below is a part drawn at random. In the full data, 167 (0.63%) got an active call. 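Calls are per gene from RSA p-values that are not deposited; an individual active-marked siRNA can sensitise only weakly.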 Reagents against one gene are numbered here. Further read-outs or replicates are left out here.
target gene,reagent no.,log2 vehicle/camptothecin viability,viability with camptothecin (% of control),call
APP,1,-0.406,89.2,inactive
APP,2,-0.143,87.9,inactive
APP,3,-0.537,87.6,inactive
WNK2,1,0.538,72.1,inactive
WNK2,2,-0.254,82.9,inactive
WNK2,3,-0.0697,117,inactive
WNK2,4,-0.262,80.5,inactive
FBXW9,1,-0.421,92.4,inactive
FBXW9,2,1.02,10,inactive
FBXW9,3,-0.618,93.5,inactive
ANKIB1,1,-0.137,93.7,inactive
ANKIB1,2,-0.244,117,inactive
ANKIB1,3,-0.0341,108,inactive
ANKIB1,4,-0.0198,97.9,inactive
OR3A2,1,0.103,37.4,inactive
OR3A2,2,-0.323,72.3,inactive
OR3A2,3,-0.216,75.9,inactive
OR3A2,4,0.309,39.7,inactive
OR3A2,5,-0.127,73.8,inactive
CAMLG,1,0.176,81.5,inactive
CAMLG,2,-0.0801,39.4,inactive
CAMLG,3,0.206,78.5,inactive
CAMLG,4,-0.0693,94.7,inactive

Reformatted: 9 of the entries above.
| target gene | reagent no. | log2 vehicle/camptothecin viability | viability with camptothecin (% of control) | call |
| --- | --- | --- | --- | --- |
| ANKIB1 | 3 | -0.0341 | 108 | inactive |
| ANKIB1 | 4 | -0.0198 | 97.9 | inactive |
| OR3A2 | 1 | 0.103 | 37.4 | inactive |
| OR3A2 | 2 | -0.323 | 72.3 | inactive |
| OR3A2 | 3 | -0.216 | 75.9 | inactive |
| OR3A2 | 4 | 0.309 | 39.7 | inactive |
| OR3A2 | 5 | -0.127 | 73.8 | inactive |
| CAMLG | 1 | 0.176 | 81.5 | inactive |
| CAMLG | 2 | -0.0801 | 39.4 | inactive |

The results go on:
target gene,reagent no.,log2 vehicle/camptothecin viability,viability with camptothecin (% of control),call
BIRC5,1,-0.375,82,inactive
BIRC5,2,0.128,74.5,inactive
BIRC5,3,0.0745,30.2,inactive
BIRC5,4,-0.0769,69.1,inactive
CHRNA5,1,0.0102,98.5,inactive
CHRNA5,2,-0.148,85.4,inactive
CHRNA5,3,-0.242,60.2,inactive
CHRNA5,4,-0.525,96.3,inactive
SGPP1,1,0.33,27,inactive
SGPP1,2,-0.0867,22.8,inactive
SGPP1,3,-0.192,11.8,inactive
SGPP1,4,0.389,86.2,inactive
PDGFRB,1,-0.127,93.1,inactive
PDGFRB,2,0.063,60.2,inactive
PDGFRB,3,-0.494,43.6,inactive
PDGFRB,4,-0.244,109,inactive
TNFSF12,1,-0.155,92.4,inactive
TNFSF12,2,-0.168,50.5,inactive
TNFSF12,3,0.193,75.1,inactive
TNFSF12,4,-0.5,87.6,inactive
FGL1,1,-0.00456,56.6,inactive
FGL1,2,-0.0253,96,inactive
FGL1,3,0.457,80.6,inactive
FGL1,4,-0.194,105,inactive
BUD23,1,-0.358,41.3,inactive
BUD23,2,-0.374,59.4,inactive
BUD23,3,-0.31,82.7,inactive
BUD23,4,-0.396,32.1,inactive
CYP2E1,1,0.156,71.1,inactive
CYP2E1,2,-0.0611,55.8,inactive
CYP2E1,3,-0.37,85.4,inactive
CYP2E1,4,-0.325,105,inactive
SSR1,1,0.578,54.2,inactive
SSR1,2,-0.544,84.7,inactive
SSR1,3,-0.169,89,inactive
SSR1,4,-0.371,108,inactive
GALR1,1,-0.285,97,inactive
GALR1,2,-0.333,37.2,inactive
GALR1,3,-0.498,90.2,inactive
GALR1,4,-0.391,65.1,inactive
GALR1,5,-0.585,65.7,inactive
USP24,1,0.0187,96.5,inactive
USP24,2,0.563,73.2,inactive
USP24,3,0.0545,77,inactive
CLCN6,1,0.0547,106,inactive
CLCN6,2,-0.0285,87.3,inactive
CLCN6,3,-0.0518,65.5,inactive
CLCN6,4,-0.295,63.6,inactive
